According to patent US20230331792A1, “NEW MULTI-FUNCTIONAL OLIGOPEPTIDES” (ENLITISA (SHANGHAI) PHARMACEUTICAL CO., LTD., priority 2019, published 2023):
Not every detail of the peptide structures is certain; ends, links or a residue may be inferred. Bridge positions count the residues as written; N and C are the ends. Square brackets hold non-standard residues; d marks the D form. Ends that are not written are not given here. I, II: the chains in the order shown. Dopa = N[C@@H](Cc1ccc(O)c(O)c1)C(=O)O; Hyp = O=C(O)[C@@H]1C[C@@H](O)CN1

Legend:
Wistar rats = assay: Radiation proctitis model; format: in vivo; settings: for Rate of body weight increase at D8, Mean (%): 300 μL/rat once a day D1 to D7
patient three = assay: Radiation vaginitis, patient case; format: in vivo, human
SD rat = assay: Bioadhesive test on skin incisions; format: in vivo
person two = assay: Itch relief in hemorrhoids, patient case; format: in vivo, human; settings: gel 0.5 mg/g x 3 g rectally once a day
SD rats = assay: TNBS-induced ulcerative proctitis model; format: in vivo; settings: rectal gel 0.5 and 1.5 mg/g, 0.5 mL/rat once a day Day 1 to Day 7
rats = assay: Croton oil-induced anal swelling model in rats II (Evans blue content); format: in vivo; settings: gel 0.5 mg/g (Low) and 1.5 mg/g (High)
person five = assay: Ulcerative colitis, patient case; format: in vivo, human
Text: person five was diagnosed with an acute attack of ulcerative colitis. […] After this, they were given the same Compound C gel as described in Example 41 above, at the same dose, 3 times over the first two days. The frequent with which they had to go to the toilet reduced to 3 to 4 times a day.

[1] = gel 1.5 mg/g x 3 g vaginally twice a day, after 3 days

I: AKPS[Dopa][Hyp]T[Dopa][Hyp]KKK / II: AKPS[Dopa][Hyp]T[Dopa][Hyp]KK / III: AKPS[Dopa][Hyp]T[Dopa][Hyp]K / IV: AKPS[Dopa][Hyp]T[Dopa][Hyp]K (amide I:11-IV:C, I:12-II:C, II:11-III:C) [Compound C, [(Ala-Lys-Pro-Ser-DOPA-Hyp-Thr-DOPA-Hyp-Lys)2-Lys]2-Lys]
effect on weight loss caused by radiation proctitis (Wistar rats; gels 0.5 and 1.5 mg/g): prevent weight loss caused by radiation proctitis, in a dose dependent manner | Rate of body weight increase at D8, Mean (%) (Wistar rats; rectal gel 0.5 mg/g): 0.8076% | Rate of body weight increase at D8, Mean (%) (Wistar rats; rectal gel 1.5 mg/g): 3.7538% | pain (patient three; [1]): pain was reduced | vaginal bleeding (patient three; [1]): bleeding had stopped | vaginal ulcers (patient three; gel continued two weeks after end of radiation therapy): ulcers had disappeared | closure of incision (SD rat; a pinch of powder on 1 cm incision, closed 10 seconds, after about 20 minutes, rat moving): the treated wound kept closed | appearance of incision (SD rat; after 24 h): treated wound smoother than the untreated one | constipation (person two): constipation became less prevalent | itch (person two): felt less of an itch, which disappeared after one week | severity of TNBS-induced ulcerative proctitis (body weight, ulcerative surface, general appearance; FIGS. 7-9) (SD rats): reduces the severity of TNBS-induced ulcerative proctitis in a dose dependent manner | inflammatory swelling, EB content in rectoanal tissues (FIG. 6) (rats): reduces inflammatory swelling caused by croton oil application, in a dose dependent manner | frequency of going to the toilet (person five; gel 0.5 mg/g x 3 g, 3 times over the first two days, before: more than 10 times a day): 3 to 4 times a day | symptoms of ulcerative colitis (person five; gel once per day for further 7 days): symptoms disappeared
